We go through three molecules from PMC11926914.

Protein sequences, listed by entry. Tags and fused reporters are not part of them.
UniProt P42224: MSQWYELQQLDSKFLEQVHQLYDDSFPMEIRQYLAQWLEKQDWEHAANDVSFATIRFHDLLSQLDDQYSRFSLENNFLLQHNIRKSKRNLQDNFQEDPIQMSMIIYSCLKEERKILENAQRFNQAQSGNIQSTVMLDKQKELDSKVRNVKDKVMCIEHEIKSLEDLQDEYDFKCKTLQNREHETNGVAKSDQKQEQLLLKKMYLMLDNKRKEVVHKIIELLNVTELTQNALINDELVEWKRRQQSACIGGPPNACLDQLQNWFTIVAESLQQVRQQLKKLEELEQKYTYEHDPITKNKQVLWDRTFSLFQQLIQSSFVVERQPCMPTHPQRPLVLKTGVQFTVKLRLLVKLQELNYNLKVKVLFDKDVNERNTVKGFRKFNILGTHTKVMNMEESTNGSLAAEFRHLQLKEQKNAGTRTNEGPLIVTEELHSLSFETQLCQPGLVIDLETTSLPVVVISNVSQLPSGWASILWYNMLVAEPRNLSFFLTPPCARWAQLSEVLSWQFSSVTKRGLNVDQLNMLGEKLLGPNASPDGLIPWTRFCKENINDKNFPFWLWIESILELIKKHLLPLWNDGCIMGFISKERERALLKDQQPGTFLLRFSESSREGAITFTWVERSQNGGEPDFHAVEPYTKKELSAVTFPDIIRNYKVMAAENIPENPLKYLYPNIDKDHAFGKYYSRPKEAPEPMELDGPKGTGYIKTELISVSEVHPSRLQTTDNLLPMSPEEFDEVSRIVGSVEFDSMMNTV
UniProt P29350: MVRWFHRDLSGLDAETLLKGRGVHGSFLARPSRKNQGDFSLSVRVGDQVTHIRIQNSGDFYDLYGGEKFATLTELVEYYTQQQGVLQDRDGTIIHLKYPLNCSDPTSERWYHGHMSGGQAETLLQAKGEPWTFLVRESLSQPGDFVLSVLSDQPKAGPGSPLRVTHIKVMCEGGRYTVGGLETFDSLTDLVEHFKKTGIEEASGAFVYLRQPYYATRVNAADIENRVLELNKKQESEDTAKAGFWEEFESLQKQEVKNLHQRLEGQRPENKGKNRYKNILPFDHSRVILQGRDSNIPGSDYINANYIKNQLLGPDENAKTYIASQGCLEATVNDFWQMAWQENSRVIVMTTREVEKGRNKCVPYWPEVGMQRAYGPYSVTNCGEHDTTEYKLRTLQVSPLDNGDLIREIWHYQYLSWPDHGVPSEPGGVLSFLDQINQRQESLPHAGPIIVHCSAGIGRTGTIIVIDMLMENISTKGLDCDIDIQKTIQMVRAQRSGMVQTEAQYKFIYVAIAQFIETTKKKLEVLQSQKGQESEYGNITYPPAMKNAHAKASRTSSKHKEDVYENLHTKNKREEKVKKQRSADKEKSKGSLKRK

Results are given in words; binding and its absence hold for the method and conditions named. For part of these data: In cells and extracts the contact can be indirect. Some binding calls cover weakened binding; strength is not graded here.

Test [1] concerns the target signal transducer and activator of transcription 1 (STAT1), endogenous in HT29 and HCT116 cells (human (endogenous in HT29 and HCT116)) (UniProt P42224). Description: co-IP; HT29 and HCT116 cells treated with 2000 U/mL human IFN-α for 48 h or untreated; lysates immunoprecipitated with anti-STAT1 antibody, western blot. In general terms: A western blot detects proteins with antibodies after separation by electrophoresis.

Test [2] deals with signal transducer and activator of transcription 1 (STAT1) protein used in biolayer interferometry (UniProt P42224). Description: BLI; kinetic interactions of RIG-I and the STAT1 protein, in vitro; which partner was immobilised and the conditions are not stated; both purified.

With “SHP1, endogenous in HT29 and HCT116 cells (from UniProt P29350 1-595)”, the binding entry in test [1] was “binds”.

B1: Retinoic acid‐inducible gene I (RIG‐I) protein used in biolayer interferometry (protein, UniProt O95786 1-925)
chain: MTTEQRRSLQAFQDYIRKTLDPTYILSYMAPWFREEEVQYIQAEKNNKGPMEAATLFLKFLLELQEEGWFRGFLDALDHAGYSGLYEAIESWDFKKIEKLEEYRLLLKRLQPEFKTRIIPTDIISDLSECLINQECEEILQICSTKGMMAGAEKLVECLLRSDKENWPKTLKLALEKERNKFSELWIVEKGIKDVETEDLEDKMETSDIQIFYQEDPECQNLSENSCPPSEVSDTNLYSPFKPRNYQLELALPAMKGKNTIICAPTGCGKTFVSLLICEHHLKKFPQGQKGKVVFFANQIPVYEQQKSVFSKYFERHGYRVTGISGATAENVPVEQIVENNDIIILTPQILVNNLKKGTIPSLSIFTLMIFDECHNTSKQHPYNMIMFNYLDQKLGGSSGPLPQVIGLTASVGVGDAKNTDEALDYICKLCASLDASVIATVKHNLEELEQVVYKPQKFFRKVESRISDKFKYIIAQLMRDTESLAKRICKDLENLSQIQNREFGTQKYEQWIVTVQKACMVFQMPDKDEESRICKALFLYTSHLRKYNDALIISEHARMKDALDYLKDFFSNVRAAGFDEIEQDLTQRFEEKLQELESVSRDPSNENPKLEDLCFILQEEYHLNPETITILFVKTRALVDALKNWIEGNPKLSFLKPGILTGRGKTNQNTGMTLPAQKCILDAFKASGDHNILIATSVADEGIDIAQCNLVILYEYVGNVIKMIQTRGRGRARGSKCFLLTSNAGVIEKEQINMYKEKMMNDSILRLQTWDEAVFREKILHIQTHEKFIRDSQEKPKPVPDKENKKLLCRKCKALACYTADVRVIEECHYTVLGDAFKECFVSRPHPKPKQFSSFEKRAKIFCARQNCSHDWGIHVKYKTFEIPVIKIESFVVEDIATGVQTLYSKWKDFHFEKIPFDPAEMSK
In the case of B1, the binding entry in test [2] was “binds”.

B2: Retinoic acid‐inducible gene I (RIG‐I), endogenous in HT29 and HCT116 cells (protein, UniProt O95786 1-925)
chain: B1 chain
As to B2, the binding entry in test [1] is recorded as “binds”.
